The values that follow come from the supplement of paper PMC11348887.

Holding throughout (details): 5 µM; treatment: days 7-14 after plating, readout day 21
Assay [1] deals with hPSC-derived cortical neurons (WA09). Nature of the assay: nucleus area z-score vs screen plate; higher = larger nuclei (more mature).
Assay [2] shares this test system. Nature of the assay: total neurite length per nucleus (MAP2) z-score; higher = more neurite growth.
The test system is the same in assay [3]. Briefly: nucleus roundness z-score vs screen plate; higher = rounder nuclei (more mature).
The test system is the same in assay [4]. Briefly: KCl-induced FOS+/EGR-1+ double-positive nuclei fraction z-score (KCl minus unstimulated); higher = stronger activity-induced IEG response.

Counter-ions that a name gives are not always drawn. The list shows a part of the results. Most entries show no effect beyond the scatter of the controls.

As to `Clc1ccc(CCC(Cn2ccnc2)Sc2c(Cl)cccc2Cl)cc1` (stereo not given) [Butoconazole nitrate], in assay [1], the nucleus area z-score was -4.3. Also, the “total neurite length per nucleus (z-score)” value in assay [2] is -1.4. Moreover, the nucleus roundness z-score in assay [3] is -1.97. In addition, the “KCl-induced FOS+/EGR-1+ double-positive nuclei fraction z-score” value in assay [4] was determined as 1.36.

Molecule `CCOC(=O)N[C@@H]1CC[C@@H]2[C@@H](C1)C[C@H]1C(=O)O[C@H](C)[C@H]1[C@H]2/C=C/c1ccc(-c2cccc(F)c2)cn1` [Vorapaxar] returned a nucleus area z-score in assay [1] of 0.58. In addition, the “total neurite length per nucleus (z-score)” value in assay [2] was 0.0437. The nucleus roundness z-score in assay [3] was determined as 0.344. In assay [4], the “KCl-induced FOS+/EGR-1+ double-positive nuclei fraction z-score” value is -0.312.

As for `O=C(c1cc(Cc2n[nH]c(=O)c3ccccc23)ccc1F)N1CCN(C(=O)C2CC2)CC1`, the nucleus area z-score in assay [1] was -0.222. Also, in assay [2], the “total neurite length per nucleus (z-score)” value is 0.462. In assay [3], this molecule showed a nucleus roundness z-score of 0.663. The “KCl-induced FOS+/EGR-1+ double-positive nuclei fraction z-score” value in assay [4] is -0.233.

In turn, `CC(C)(C)c1ccc(-c2nc3ccccc3[nH]2)cc1` came in with a nucleus area z-score in assay [1] of 0.295. Also, the “total neurite length per nucleus (z-score)” value in assay [2] was 1.09. Besides, in assay [3], the nucleus roundness z-score came out at 0.17. Also, in assay [4], the “KCl-induced FOS+/EGR-1+ double-positive nuclei fraction z-score” value was -0.497.

In turn, `CC(C)[C@H](N)C(=O)OCCOCn1cnc2c(=O)nc(N)[nH]c21` [Valaciclovir HCl] showed a nucleus area z-score in assay [1] of 1.33. Further, in assay [2], the “total neurite length per nucleus (z-score)” value was -0.445. The nucleus roundness z-score in assay [3] was -0.226. In assay [4], the “KCl-induced FOS+/EGR-1+ double-positive nuclei fraction z-score” value amounted to 1.35.

On to `C[C@H]1COc2c(N3CCN(C)CC3)c(F)cc3c(=O)c(C(=O)O)cn1c23` [Levofloxacin], for which, in assay [1], the nucleus area z-score amounted to 0.596. The “total neurite length per nucleus (z-score)” value in assay [2] was 0.444. This molecule also gave a nucleus roundness z-score in assay [3] of -0.971. In addition, the “KCl-induced FOS+/EGR-1+ double-positive nuclei fraction z-score” value in assay [4] was -0.139.

Regarding `CNC(=O)c1cc(Oc2ccc(NC(=O)Nc3ccc(Cl)c(C(F)(F)F)c3)cc2)ccn1` [Sorafenib Tosylate], the nucleus area z-score in assay [1] came to 1.33. Moreover, in assay [2], the “total neurite length per nucleus (z-score)” value is -0.478. Further, the nucleus roundness z-score in assay [3] is -0.886. Further, in assay [4], the “KCl-induced FOS+/EGR-1+ double-positive nuclei fraction z-score” value came to 0.716.

In assay [1], `CC(=O)OCC(=O)[C@H]1CC[C@H]2[C@@H]3CCC4=CC(=O)CC[C@]4(C)[C@H]3CC[C@]12C` [Deoxycorticosterone acetate] gave a nucleus area z-score of 1.05. For the same molecule, the “total neurite length per nucleus (z-score)” value in assay [2] worked out at 0.474. Also, the nucleus roundness z-score in assay [3] was determined as 0.35. Besides, the “KCl-induced FOS+/EGR-1+ double-positive nuclei fraction z-score” value in assay [4] worked out at 0.0834.

For the molecule `COC1=CC(=O)C[C@@H](C)[C@]12Oc1c(Cl)c(OC)cc(OC)c1C2=O` [Griseofulvin], in assay [1], the nucleus area z-score is 0.854. For the same molecule, the “total neurite length per nucleus (z-score)” value in assay [2] was -0.812. Moreover, the nucleus roundness z-score in assay [3] was -1.25. For the same molecule, the “KCl-induced FOS+/EGR-1+ double-positive nuclei fraction z-score” value in assay [4] is -0.398.

For `CCn1c(=O)c(-c2ccc(-c3cncs3)cc2Cl)cc2cnc(Nc3ccc(N4CCN(C)CC4)cc3)nc21`, in assay [1], the nucleus area z-score is -1.37. In addition, in assay [2], the “total neurite length per nucleus (z-score)” value was -0.678. The nucleus roundness z-score in assay [3] is -1.07. Further, the “KCl-induced FOS+/EGR-1+ double-positive nuclei fraction z-score” value in assay [4] was -2.25.
